# Results are given in words; binding and its absence hold for the method and conditions named.
# B1: Arabidopsis thaliana alkaline α-galactosidase AtAkαGal3, wild type (enzyme, UniProt Q8RX87 1-749)
# chain: MTIKPAVRISDGNLIIKNRTILTGVPDNVITTSASEAGPVEGVFVGAVFNKEESKHIVPIGTLRNSRFMSCFRFKLWWMAQRMGEMGRDIPYETQFLLVESNDGSHLESDGANGVECNQKVYTVFLPLIEGSFRSCLQGNVNDEVELCLESGDVDTKRSSFTHSLYIHAGTDPFQTITDAIRTVKLHLNSFRQRHEKKLPGIVDYFGWCTWDAFYQEVTQEGVEAGLKSLAAGGTPPKFVIIDDGWQSVERDATVEAGDEKKESPIFRLTGIKENEKFKKKDDPNVGIKNIVKIAKEKHGLKYVYVWHAITGYWGGVRPGEEYGSVMKYPNMSKGVVENDPTWKTDVMTLQGLGLVSPKKVYKFYNELHSYLADAGVDGVKVDVQCVLETLGGGLGGRVELTRQFHQALDSSVAKNFPDNGCIACMSHNTDALYCSKQAAVIRASDDFYPRDPVSHTIHIASVAYNSVFLGEFMQPDWDMFHSVHPAAEYHASARAISGGPLYVSDSPGKHNFELLRKLVLPDGSILRARLPGRPTRDCLFADPARDGVSLLKIWNMNKYTGVLGVYNCQGAAWSSTERKNIFHQTKTDSLTGSIRGRDVHSISEASTDPTTWNGDCAVYSQSRGELIVMPYNVSLPVSLKIREHEIFTVSPISHLVDGVSFAPIGLVNMYNSGGAIEGLRYEAEKMKVVMEVKGCGKFGSYSSVKPKRCVVESNEIAFEYDSSSGLVTFELDKMPIENKRFHLIQVEL
# B2: AtAkαGal3 D383A mutant (enzyme, UniProt Q8RX87 1-749)
# chain: MTIKPAVRISDGNLIIKNRTILTGVPDNVITTSASEAGPVEGVFVGAVFNKEESKHIVPIGTLRNSRFMSCFRFKLWWMAQRMGEMGRDIPYETQFLLVESNDGSHLESDGANGVECNQKVYTVFLPLIEGSFRSCLQGNVNDEVELCLESGDVDTKRSSFTHSLYIHAGTDPFQTITDAIRTVKLHLNSFRQRHEKKLPGIVDYFGWCTWDAFYQEVTQEGVEAGLKSLAAGGTPPKFVIIDDGWQSVERDATVEAGDEKKESPIFRLTGIKENEKFKKKDDPNVGIKNIVKIAKEKHGLKYVYVWHAITGYWGGVRPGEEYGSVMKYPNMSKGVVENDPTWKTDVMTLQGLGLVSPKKVYKFYNELHSYLADAGVDGVKVAVQCVLETLGGGLGGRVELTRQFHQALDSSVAKNFPDNGCIACMSHNTDALYCSKQAAVIRASDDFYPRDPVSHTIHIASVAYNSVFLGEFMQPDWDMFHSVHPAAEYHASARAISGGPLYVSDSPGKHNFELLRKLVLPDGSILRARLPGRPTRDCLFADPARDGVSLLKIWNMNKYTGVLGVYNCQGAAWSSTERKNIFHQTKTDSLTGSIRGRDVHSISEASTDPTTWNGDCAVYSQSRGELIVMPYNVSLPVSLKIREHEIFTVSPISHLVDGVSFAPIGLVNMYNSGGAIEGLRYEAEKMKVVMEVKGCGKFGSYSSVKPKRCVVESNEIAFEYDSSSGLVTFELDKMPIENKRFHLIQVEL
# How the values were obtained:
# [1] = molecular target: Arabidopsis thaliana alkaline α-galactosidase AtAkαGal3, wild type (Arabidopsis thaliana) (UniProt Q8RX87); test: SEC; S200 column equilibrated with 20 mM Tris-HCl pH 8.2, 1 mM DTT, 1 mM galactose; elution at 80-100 kDa against ~82 kDa on SDS-PAGE; both purified
# [2] = molecular target: AtAkαGal3 D383A mutant (Arabidopsis thaliana) (UniProt Q8RX87); test: as above
binding [1],binding [2],Binder
no binding,,B1
,no binding,B2
